Some of the results follow.
Compound: Cc1cc(ccc1-c1ccccc1)C(=O)N1CCCN(CC1)C(=O)CCl [compound 10]
Test: probe-labelled cysteine peptide fold change vs DMSO (competition) (log2 fold change); higher = less target engagement (more negative = stronger competition)
Conditions: THP-1, incubation time: 4 h
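Further: competitive profiling in live THP-1 cells: cysteine peptides tagged with an iodoacetamide desthiobiotin (IA-DTB) probe, intensity after compound treatment relative to DMSO-treated cells.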

Chains of the proteins cited; added tags and fusions are not shown. Lines headed by an entry give the natural chain unless they say otherwise; changes in a name come on top.
UniProt Q96HE7: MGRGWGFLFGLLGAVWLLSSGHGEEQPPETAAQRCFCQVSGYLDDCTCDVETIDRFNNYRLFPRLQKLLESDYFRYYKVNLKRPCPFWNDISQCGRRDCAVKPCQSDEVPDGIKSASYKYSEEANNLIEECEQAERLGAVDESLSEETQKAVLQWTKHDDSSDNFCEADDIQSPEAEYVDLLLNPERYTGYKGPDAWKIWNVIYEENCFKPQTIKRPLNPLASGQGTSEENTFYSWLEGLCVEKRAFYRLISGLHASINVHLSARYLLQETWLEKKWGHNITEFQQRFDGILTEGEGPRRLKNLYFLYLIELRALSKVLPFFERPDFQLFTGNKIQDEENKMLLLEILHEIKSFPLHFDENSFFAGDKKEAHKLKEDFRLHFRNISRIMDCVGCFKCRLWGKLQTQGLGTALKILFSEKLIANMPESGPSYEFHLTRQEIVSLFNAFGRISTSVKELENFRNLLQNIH
UniProt Q96CS3: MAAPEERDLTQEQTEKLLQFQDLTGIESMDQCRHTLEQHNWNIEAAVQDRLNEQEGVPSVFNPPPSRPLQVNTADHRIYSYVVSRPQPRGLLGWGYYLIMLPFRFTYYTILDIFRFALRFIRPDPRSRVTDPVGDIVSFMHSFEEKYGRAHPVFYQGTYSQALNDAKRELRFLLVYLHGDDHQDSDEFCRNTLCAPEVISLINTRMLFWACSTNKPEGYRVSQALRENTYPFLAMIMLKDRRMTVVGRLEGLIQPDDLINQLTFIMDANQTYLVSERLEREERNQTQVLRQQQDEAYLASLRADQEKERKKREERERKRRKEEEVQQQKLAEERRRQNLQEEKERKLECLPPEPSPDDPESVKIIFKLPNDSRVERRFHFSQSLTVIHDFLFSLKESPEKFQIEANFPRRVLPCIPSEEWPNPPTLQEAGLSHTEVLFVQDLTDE
UniProt Q96KP1: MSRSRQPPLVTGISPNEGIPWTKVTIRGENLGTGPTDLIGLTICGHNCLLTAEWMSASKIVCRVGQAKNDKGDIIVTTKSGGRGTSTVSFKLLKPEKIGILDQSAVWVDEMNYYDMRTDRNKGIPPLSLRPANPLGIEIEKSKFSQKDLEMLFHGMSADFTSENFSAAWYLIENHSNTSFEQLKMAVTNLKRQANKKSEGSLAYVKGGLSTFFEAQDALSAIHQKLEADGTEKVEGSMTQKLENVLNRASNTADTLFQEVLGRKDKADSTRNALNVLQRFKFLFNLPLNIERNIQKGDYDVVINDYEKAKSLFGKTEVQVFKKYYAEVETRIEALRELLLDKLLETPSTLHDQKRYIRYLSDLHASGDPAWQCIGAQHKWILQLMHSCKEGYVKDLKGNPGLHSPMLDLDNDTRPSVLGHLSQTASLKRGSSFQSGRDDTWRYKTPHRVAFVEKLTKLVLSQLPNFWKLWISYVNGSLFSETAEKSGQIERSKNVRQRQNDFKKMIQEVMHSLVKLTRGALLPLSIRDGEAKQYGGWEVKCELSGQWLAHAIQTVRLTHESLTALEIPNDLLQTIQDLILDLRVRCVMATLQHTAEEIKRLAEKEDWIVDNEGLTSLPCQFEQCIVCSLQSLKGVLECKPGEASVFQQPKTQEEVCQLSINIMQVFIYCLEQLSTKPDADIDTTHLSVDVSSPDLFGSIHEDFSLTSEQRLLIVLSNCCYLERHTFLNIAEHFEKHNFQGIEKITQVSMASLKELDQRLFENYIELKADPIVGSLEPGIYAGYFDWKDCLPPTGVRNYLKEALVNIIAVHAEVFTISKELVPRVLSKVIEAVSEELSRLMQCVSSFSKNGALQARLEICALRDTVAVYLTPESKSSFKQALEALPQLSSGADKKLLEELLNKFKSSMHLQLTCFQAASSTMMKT
UniProt Q96EK7: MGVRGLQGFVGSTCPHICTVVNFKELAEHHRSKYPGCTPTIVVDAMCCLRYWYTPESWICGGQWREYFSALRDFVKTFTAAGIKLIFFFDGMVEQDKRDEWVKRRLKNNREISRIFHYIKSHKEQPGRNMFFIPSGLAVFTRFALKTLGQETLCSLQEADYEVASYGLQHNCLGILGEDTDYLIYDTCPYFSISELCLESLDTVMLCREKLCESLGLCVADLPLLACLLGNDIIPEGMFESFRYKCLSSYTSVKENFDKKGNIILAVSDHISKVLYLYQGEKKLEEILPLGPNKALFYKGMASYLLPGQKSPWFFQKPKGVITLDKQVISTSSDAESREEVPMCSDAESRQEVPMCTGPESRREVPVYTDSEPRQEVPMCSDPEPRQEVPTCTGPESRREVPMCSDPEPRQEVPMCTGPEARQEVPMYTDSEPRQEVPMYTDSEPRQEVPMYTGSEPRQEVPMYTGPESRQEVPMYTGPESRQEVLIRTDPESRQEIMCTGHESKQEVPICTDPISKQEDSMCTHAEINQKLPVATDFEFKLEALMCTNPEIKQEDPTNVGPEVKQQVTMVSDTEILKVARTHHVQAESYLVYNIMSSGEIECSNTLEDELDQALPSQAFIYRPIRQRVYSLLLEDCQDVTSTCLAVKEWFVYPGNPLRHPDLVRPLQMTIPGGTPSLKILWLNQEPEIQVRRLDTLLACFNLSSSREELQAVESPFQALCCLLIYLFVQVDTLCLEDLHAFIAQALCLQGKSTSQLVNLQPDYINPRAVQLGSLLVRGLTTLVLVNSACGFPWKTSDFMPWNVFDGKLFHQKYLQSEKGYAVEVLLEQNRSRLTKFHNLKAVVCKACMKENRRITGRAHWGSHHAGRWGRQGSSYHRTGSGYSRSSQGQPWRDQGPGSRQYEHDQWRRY
UniProt Q96A65: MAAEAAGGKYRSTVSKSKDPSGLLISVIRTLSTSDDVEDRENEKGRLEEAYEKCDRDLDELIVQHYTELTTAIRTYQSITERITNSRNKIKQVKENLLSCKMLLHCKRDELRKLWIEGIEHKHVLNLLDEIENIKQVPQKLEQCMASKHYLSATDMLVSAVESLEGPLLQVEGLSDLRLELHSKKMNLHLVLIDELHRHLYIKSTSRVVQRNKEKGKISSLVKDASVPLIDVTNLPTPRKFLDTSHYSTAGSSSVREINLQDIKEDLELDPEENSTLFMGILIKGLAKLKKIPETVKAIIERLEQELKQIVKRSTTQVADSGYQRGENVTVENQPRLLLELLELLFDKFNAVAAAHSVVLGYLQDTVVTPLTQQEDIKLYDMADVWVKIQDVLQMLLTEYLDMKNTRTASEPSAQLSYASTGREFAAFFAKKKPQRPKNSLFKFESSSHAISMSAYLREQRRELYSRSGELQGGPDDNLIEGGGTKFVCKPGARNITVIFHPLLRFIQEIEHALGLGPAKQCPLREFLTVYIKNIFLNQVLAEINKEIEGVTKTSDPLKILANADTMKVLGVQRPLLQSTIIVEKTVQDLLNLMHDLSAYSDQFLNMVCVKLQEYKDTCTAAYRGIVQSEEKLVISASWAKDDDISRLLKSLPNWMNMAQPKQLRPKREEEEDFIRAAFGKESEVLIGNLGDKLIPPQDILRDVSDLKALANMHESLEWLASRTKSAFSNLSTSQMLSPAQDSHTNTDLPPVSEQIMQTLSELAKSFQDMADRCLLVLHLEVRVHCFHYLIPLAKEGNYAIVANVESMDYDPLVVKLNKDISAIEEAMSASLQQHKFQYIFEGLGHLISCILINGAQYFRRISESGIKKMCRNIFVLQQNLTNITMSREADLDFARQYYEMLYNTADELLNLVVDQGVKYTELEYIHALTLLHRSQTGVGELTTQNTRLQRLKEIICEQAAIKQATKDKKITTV
UniProt O94905: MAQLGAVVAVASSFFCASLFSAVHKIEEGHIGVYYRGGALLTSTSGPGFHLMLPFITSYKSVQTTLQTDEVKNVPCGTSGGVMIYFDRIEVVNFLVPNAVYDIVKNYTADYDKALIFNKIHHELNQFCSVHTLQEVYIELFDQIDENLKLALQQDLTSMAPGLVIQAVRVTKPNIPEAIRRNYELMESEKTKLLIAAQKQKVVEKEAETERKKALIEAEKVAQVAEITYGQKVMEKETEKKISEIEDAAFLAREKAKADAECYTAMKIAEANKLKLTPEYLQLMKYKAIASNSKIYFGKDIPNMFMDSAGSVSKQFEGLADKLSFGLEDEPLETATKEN
UniProt Q01469, whole entry, looked up: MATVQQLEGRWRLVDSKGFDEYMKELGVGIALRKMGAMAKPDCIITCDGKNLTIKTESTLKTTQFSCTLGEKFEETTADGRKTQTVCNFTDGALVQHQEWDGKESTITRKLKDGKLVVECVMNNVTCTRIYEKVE
UniProt Q9UPT5: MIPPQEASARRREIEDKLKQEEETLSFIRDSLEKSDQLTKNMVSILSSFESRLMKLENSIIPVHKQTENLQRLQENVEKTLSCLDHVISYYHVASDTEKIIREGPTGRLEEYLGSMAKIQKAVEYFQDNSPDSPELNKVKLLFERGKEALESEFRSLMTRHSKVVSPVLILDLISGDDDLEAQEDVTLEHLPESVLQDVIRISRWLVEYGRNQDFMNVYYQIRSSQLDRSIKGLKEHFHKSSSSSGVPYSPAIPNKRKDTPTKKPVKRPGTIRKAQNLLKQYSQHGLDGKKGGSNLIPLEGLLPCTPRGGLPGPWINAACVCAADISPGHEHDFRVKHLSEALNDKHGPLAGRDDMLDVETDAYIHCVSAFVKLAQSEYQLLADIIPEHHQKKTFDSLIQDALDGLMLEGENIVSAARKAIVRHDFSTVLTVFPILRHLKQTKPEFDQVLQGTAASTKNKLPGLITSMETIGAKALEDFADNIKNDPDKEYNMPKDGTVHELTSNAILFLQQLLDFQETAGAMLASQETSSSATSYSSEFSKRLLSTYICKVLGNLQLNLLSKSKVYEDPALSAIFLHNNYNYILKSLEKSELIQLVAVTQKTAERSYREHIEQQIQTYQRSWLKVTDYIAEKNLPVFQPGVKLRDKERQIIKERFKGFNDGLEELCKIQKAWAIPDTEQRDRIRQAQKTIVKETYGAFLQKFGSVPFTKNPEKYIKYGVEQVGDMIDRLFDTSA
UniProt Q9NV70: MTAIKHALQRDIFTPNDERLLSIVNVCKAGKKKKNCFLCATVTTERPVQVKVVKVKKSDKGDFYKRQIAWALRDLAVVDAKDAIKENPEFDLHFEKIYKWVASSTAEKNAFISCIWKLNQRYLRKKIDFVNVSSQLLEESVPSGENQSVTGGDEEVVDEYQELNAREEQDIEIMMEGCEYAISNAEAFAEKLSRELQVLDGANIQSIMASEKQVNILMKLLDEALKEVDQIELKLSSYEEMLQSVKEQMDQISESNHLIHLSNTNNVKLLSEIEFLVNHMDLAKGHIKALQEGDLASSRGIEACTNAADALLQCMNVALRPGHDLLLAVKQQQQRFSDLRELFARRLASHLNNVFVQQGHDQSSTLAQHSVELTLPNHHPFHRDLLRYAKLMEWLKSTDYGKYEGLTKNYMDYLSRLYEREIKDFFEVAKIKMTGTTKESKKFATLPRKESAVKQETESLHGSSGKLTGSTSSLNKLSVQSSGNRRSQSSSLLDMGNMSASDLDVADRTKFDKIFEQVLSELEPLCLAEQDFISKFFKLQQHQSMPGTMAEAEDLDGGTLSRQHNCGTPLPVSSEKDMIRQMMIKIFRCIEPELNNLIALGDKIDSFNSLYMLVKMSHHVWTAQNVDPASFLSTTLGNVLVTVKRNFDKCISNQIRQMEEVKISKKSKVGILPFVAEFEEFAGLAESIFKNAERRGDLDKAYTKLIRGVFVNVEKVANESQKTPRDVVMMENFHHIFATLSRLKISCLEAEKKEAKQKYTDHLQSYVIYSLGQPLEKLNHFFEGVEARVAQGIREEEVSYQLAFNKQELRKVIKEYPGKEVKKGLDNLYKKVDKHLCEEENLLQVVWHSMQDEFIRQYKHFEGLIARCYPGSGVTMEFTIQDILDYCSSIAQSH
UniProt O00471: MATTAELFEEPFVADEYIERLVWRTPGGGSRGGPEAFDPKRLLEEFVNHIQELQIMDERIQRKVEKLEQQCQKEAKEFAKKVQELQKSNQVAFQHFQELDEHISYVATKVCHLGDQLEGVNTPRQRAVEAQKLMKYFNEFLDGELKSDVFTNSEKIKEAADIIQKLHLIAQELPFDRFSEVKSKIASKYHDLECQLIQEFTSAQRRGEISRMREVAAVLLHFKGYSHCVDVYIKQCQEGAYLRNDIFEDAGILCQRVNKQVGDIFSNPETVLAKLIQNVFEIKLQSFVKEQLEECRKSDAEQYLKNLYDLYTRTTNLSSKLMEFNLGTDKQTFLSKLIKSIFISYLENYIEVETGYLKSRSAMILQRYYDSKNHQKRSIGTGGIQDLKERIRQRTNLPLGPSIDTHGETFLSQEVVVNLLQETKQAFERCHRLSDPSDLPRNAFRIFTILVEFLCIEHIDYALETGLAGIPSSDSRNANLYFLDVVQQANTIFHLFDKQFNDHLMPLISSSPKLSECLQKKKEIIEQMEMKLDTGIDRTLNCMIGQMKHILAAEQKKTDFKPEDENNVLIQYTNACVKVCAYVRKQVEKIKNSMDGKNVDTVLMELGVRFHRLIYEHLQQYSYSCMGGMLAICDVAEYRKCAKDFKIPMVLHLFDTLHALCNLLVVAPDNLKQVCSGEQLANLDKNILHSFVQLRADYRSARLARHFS

Target | probe-labelled cysteine peptide fold change (10 µM) | probe-labelled cysteine peptide fold change (50 µM)
ERO1A_Q96HE7_99+104_DCAVKPCQSDEVPDGIK (UniProt Q96HE7) | -0.537 | -0.143
FAF2_Q96CS3_211_MLFWACSTNKPEGYR (UniProt Q96CS3) | -0.0536 | -0.0175
ERI1_Q8IV48_75_EIAITNGCINR (UniProt Q8IV48) | -0.21 | -0.588
EXOC2_Q96KP1_586_CVMATLQHTAEEIKR (UniProt Q96KP1) | 0.236 | 0.137
FAM120B_Q96EK7_344_QVISTSSDAESREEVPMCSDAESR (UniProt Q96EK7) | -0.278 | -0.331
EXOC4_Q96A65_786_VHCFHYLIPLAK (UniProt Q96A65) | 0.0844 | 0.695
ERLIN2_O94905_262_ADAECYTAMK (UniProt O94905) | -0.183 | 0.205
FAAP100_Q0VG06_309_TEPQAAEAAENFLPDEDVHCDCLVAFGHHGR (UniProt Q0VG06) | 0.118 | 0.172
FABP5_Q01469_47_KMGAMAKPDCIITCDGK (UniProt Q01469) | -0.0679 | -0.804
EXOC7_Q9UPT5_83_TLSCLDHVISYYHVASDTEK (UniProt Q9UPT5) | 0.00945 | -0.117
EXOC1_Q9NV70_36_NCFLCATVTTERPVQVK (UniProt Q9NV70) | 0.0396 | 0.0319
F2_P00734_564_GDACEGDSGGPFVMK (UniProt P00734) | -0.358 | -0.6
EXOC5_O00471_194_YHDLECQLIQEFTSAQR (UniProt O00471) | -0.00845 | -0.0241
EXOSC10_Q01780_93_VMQYHGCR (UniProt Q01780) | -0.078 | -0.00745

Two records picked at random from the list so far:
Target | probe-labelled cysteine peptide fold change (10 µM) | probe-labelled cysteine peptide fold change (50 µM)
EXOC1_Q9NV70_36_NCFLCATVTTERPVQVK (UniProt Q9NV70) | 0.0396 | 0.0319
EXOC7_Q9UPT5_83_TLSCLDHVISYYHVASDTEK (UniProt Q9UPT5) | 0.00945 | -0.117
